Assay results from article PMC3597711.
Results are given in words; binding and its absence hold for the method and conditions named. Tags and fused reporters may be left off the sequences shown.

B1: RB-NP (human RB1 residues 40-787, RB-N and RB-P domains, MBP tag removed) (domain or fragment, UniProt P06400 40-787)
chain: EDLPLVRLEFEETEEPDFTALCQKLKIPDHVRERAWLTWEKVSSVDGVLGGYIQKKKELWGICIFIAAVDLDEMSFTFTELQKNIEISVHKFFNLLKEIDTSTKVDNAMSRLLKKYDVLFALFSKLERTCELIYLTQPSSSISTEINSALVLKVSWITFLLAKGEVLQMEDDLVISFQLMLCVLDYFIKLSPPMLLKEPYKTAVIPINGSPRTPRRGQNRSARIAKQLENDTRIIEVLCKEHECNIDEVKNVYFKNFIPFMNSLGLVTSNGLPEVENLSKRYEEIYLKNKDLDARLFLDHDKTLQTDSIDSFETQRTPRKSNLDEEVNVIPPHTPVRTVMNTIQQLMMILNSASDQPSENLISYFNNCTVNPKESILKRVKDIGYIFKEKFAKAVGQGCVEIGSQRYKLGVRLYYRVMESMLKSEEERLSIQNFSKLLNDNIFHMSLLACALEVVMATYSRSTSQNLDSGTDLSFPWILNVLNLKAFDFYKVIESFIKAEGNLTREMIKHLERCEHRIMESLAWLSDSPLFDLIKQSKDREGPTDHLESACPLNLPLQNNHTAADMYLSPVRSPKKKGSTTRVNSTANAETQATSAFQTQKPLKSTSLSLFYKKVYRLAYLRLNTLCERLLSEHPELEHIIWTLFQHTLQNEYELMRDRHLDQIMMCSMYGICKVKNIDLKFKIIVTAYKDLPHAVQETFKRVLIKEEEYDSIIVFYNSVFMQRLKTNILQYASTRPPTLSPIPHIPR
B2: MBP-RB-NP (His6-MBP fused to the N-terminus of human RB1 residues 40-787) (domain or fragment, UniProt P06400 40-787)
chain: B1 chain

Assays:
[1] = target: RB-NP (human RB1 residues 40-787, RB-N and RB-P domains, MBP tag removed) (human) (UniProt P06400); experiment: SEC-MALS; multi-angle light scattering recorded in flow mode, molecular weight as a function of elution volume; measured mass compared with predicted mass; both purified
[2] = target: MBP-RB-NP (His6-MBP fused to the N-terminus of human RB1 residues 40-787) (human) (UniProt P06400); experiment: as above

Binder	binding [1]	binding [2]
B1	no binding	–
B2	–	no binding
